Like-named read-outs stand apart in the source and are kept apart here. Some of these results come from one statement about several compounds together.
System: GMPPNP-loaded H-Ras or GTP-loaded K-Ras
Assay: Fluorescence polarization competition assay with TAMRA-labeled probe R4007
Format: binding, human
Conditions: 120 nM Ras, 30 nM probe R4007, 60 minutes at room temperature, read-out: Probe displacement (nM IC50)
Procedure: R4000 was evaluated for competition with a TAMRA labeled probe (R4007) based on peptide R4000. The assay was performed in 384-well black, non-binding plates (Greiner Bio-One, Monroe, N.C.). GMPPNP-loaded H-Ras or GTP-loaded K-Ras, diluted in FP assay buffer (20 mM Tris-HCl, pH 7.5, 50 mM NaCl, 5 mM MgCl2, 1 mM EDTA, 0.002% Triton-X-100) for a final concentration of 120 nM was incubated with 30 nM R4007 for 20 minutes at room temperature. R4000 was serially diluted, added to the assay and incubated for 60 minutes at room temperature. Fluorescence polarization was detected with a SpectraMax Paradigm plate reader (Molecular Devices, Sunnyvale, Calif.) using the Rhodamine FP detection cartridge (535 nm/595 nm). Data was analyzed using GraphPad Prism and Ki determined using One Site Ki Curve fitting model.
Peptides were evaluated for competition with R4007, a probe consisting of TAMRA-labeled R4000, using a fluorescence polarization (FP) competition assay. The assay was performed in 384-well black, non-binding plates (Greiner Bio-One, Monroe, N.C.). GMPPNP-loaded H-Ras or GTP- loaded K-Ras, diluted in FP assay buffer (20 mM Tris-HCl, pH 7.5, 50 mM NaCl, 5 mM MgCl2, 1 mM EDTA, 0.002% Triton-X-100) for a final concentration of 120 nM was incubated with 30 nM probe for 20 minutes at room temperature. Peptides were serially diluted, added to the assay and incubated for 60 minutes at room temperature. Fluorescence was detected with a SpectraMax Paradigm plate reader (Molecular Devices, Sunnyvale, Calif.) using the Rhodamine FP detection cartridge (535 nm/595 nm). Data was analyzed and Ki determined using a One Site Ki Curve fitting model. Percent inhibition for each data point was calculated relative to the maximal binding in test compound-free control wells (showing no probe displacement) and Ras-free control wells (showing no probe binding) and the half-maximal inhibitory concentration (IC50), based on probe displacement, was determined.

**Q.** How did the IC50 (listed as Compound R4103) turn out when CCC[C@H](NC(=O)CCCC(=O)O)C(=O)N[C@H]1CSCc2cccc(c2)CSC[C@@H](C(N)=O)NC(=O)CN(C)C(=O)[C@H](Cc2ccc(F)cc2)N(C)C(=O)[C@H](Cc2ccc(O)cc2)NC(=O)[C@H](Cc2c[nH]c3ncccc23)NC(=O)[C@H](c2ccccc2)NC(=O)[C@H](C)N(C)C(=O)[C@H](Cc2c[nH]cn2)NC(=O)[C@H](CCCCN)NC(=O)[C@H](C(C)(C)C)NC(=O)[C@H](Cc2ccc(O)cc2)NC1=O (relative stereo) [Compound R4103, GLA-NVA-CYS*-TYR-TBG-LYS-HIS-NMA-PHG-7AW-TYR-MFF-SAR-CYS*-NH2] was run?
**A.** < 10 nM

**Q.** With C#CC[C@H](NC(=O)CCOCCOCCOCCOCCNC(=O)[C@@H]1CSCc2cccc(c2)CSC[C@H](NC(=O)[C@H](CCC)NC(C)=O)C(=O)N[C@@H](Cc2ccc(O)cc2)C(=O)N[C@@H](C(C)(C)C)C(=O)N[C@@H](CCCCN)C(=O)N[C@@H](Cc2c[nH]cn2)C(=O)N(C)[C@@H](C)C(=O)N[C@@H](c2ccccc2)C(=O)N[C@@H](Cc2c[nH]c3ncccc23)C(=O)N[C@@H](Cc2ccc(O)cc2)C(=O)N(C)[C@@H](Cc2ccc(F)cc2)C(=O)N(C)CC(=O)N1)C(N)=O (relative stereo) [Compound R4107, ACE-NVA-CYS*-TYR-TBG-LYS-HIS-NMA-PHG-7AW-TYR-MFF-SAR-CYS*-PEG4PA-PRG-NH2] as the compound, how does the IC50 (listed as Compound R4107) read?
**A.** < 10 nM

**Q.** For CCC[C@H](N)C(=O)N[C@H]1CSCc2cccc(c2)CSC[C@@H](C(N)=O)NC(=O)CN(C)C(=O)[C@H](Cc2ccc(F)cc2)N(C)C(=O)[C@H](Cc2ccc(O)cc2)NC(=O)[C@H](Cc2c[nH]c3ncccc23)NC(=O)[C@H](c2ccccc2)NC(=O)[C@H](C)N(C)C(=O)[C@H](Cc2cnc[nH]2)NC(=O)[C@H](CCCCN)NC(=O)[C@H](C(C)(C)C)NC(=O)[C@H](Cc2ccc(O)cc2)NC1=O (relative stereo) [Compound R4002, NVA-CYS*-TYR-TBG-LYS-HIS-NMA-PHG-7AW-TYR-MFF-SAR-CYS*-NH2], which IC50 is on record?
**A.** < 10 nM

**Q.** For CCC[C@H](NC(C)=O)C(=O)N[C@H]1CSCc2cccc(c2)CSC[C@@H](C(N)=O)NC(=O)[C@H](C)N(C)C(=O)[C@H](Cc2ccc(F)cc2)N(C)C(=O)[C@H](Cc2ccc(O)cc2)NC(=O)[C@H](Cc2c[nH]c3ncccc23)NC(=O)[C@H](c2ccccc2)NC(=O)[C@H](C)N(C)C(=O)[C@H](Cc2c[nH]cn2)NC(=O)[C@H](CCCCN)NC(=O)[C@H](C(C)(C)C)NC(=O)[C@H](Cc2ccc(O)cc2)NC1=O (relative stereo) [Compound R4101, ACE-NVA-CYS*-TYR-TBG-LYS-HIS-NMA-PHG-7AW-TYR-MFF-NMA-CYS*-NH2], which IC50 (listed as Compound R4101) is on record?
**A.** < 10 nM

**Q.** For CCC[C@H](NC(C)=O)C(=O)N[C@H]1CSCc2cccc(c2)CSC[C@@H](C(=O)N[C@H](CO)C(=O)N[C@@H](CCCCN)C(=O)NCC(=O)N[C@@H](CS)C(=O)N[C@H](C(=O)N[C@H](C(=O)N[C@@H](CCSC)C(=O)O)[C@@H](C)CC)C(C)C)NC(=O)CN(C)C(=O)[C@H](Cc2ccc(F)cc2)N(C)C(=O)[C@H](Cc2ccc(O)cc2)NC(=O)[C@H](Cc2c[nH]c3ncccc23)NC(=O)[C@H](c2ccccc2)NC(=O)[C@H](C)N(C)C(=O)[C@H](Cc2c[nH]cn2)NC(=O)[C@H](CCCCN)NC(=O)[C@H](C(C)(C)C)NC(=O)[C@H](Cc2ccc(O)cc2)NC1=O (relative stereo) [Compound R4105, ACE-NVA-CYS*-TYR-TBG-LYS-HIS-NMA-PHG-7AW-TYR-MFF-SAR-CYS*-DSER-LYS-GLY-CYS-VAL-ILE-MET], which IC50 (listed as Compound R4105) is on record?
**A.** < 10 nM

**Q.** How did the IC50 (listed as Compound R4104) turn out when CC(=O)N[C@@H](CO)C(=O)N[C@H]1CSCc2cccc(c2)CSC[C@@H](C(N)=O)NC(=O)CN(C)C(=O)[C@H](Cc2ccc(F)cc2)N(C)C(=O)[C@H](Cc2ccc(O)cc2)NC(=O)[C@H](Cc2c[nH]c3ncccc23)NC(=O)[C@H](c2ccccc2)NC(=O)[C@H](C)N(C)C(=O)[C@H](Cc2c[nH]cn2)NC(=O)[C@H](CCCCN)NC(=O)[C@H](C(C)(C)C)NC(=O)[C@H](Cc2ccc(O)cc2)NC1=O (relative stereo) [Compound R4104, ACE-SER-CYS*-TYR-TBG-LYS-HIS-NMA-PHG-7AW-TYR-MFF-SAR-CYS*-NH2] was run?
**A.** < 10 nM

**Q.** For CCC[C@H](NC(=O)CCCCCCNC(=O)[C@H](CC(C)C)NC(=O)[C@@H](O)[C@H](N)Cc1ccccc1)C(=O)N[C@H]1CSCc2cccc(c2)CSC[C@@H](C(N)=O)NC(=O)CN(C)C(=O)[C@H](Cc2ccc(F)cc2)N(C)C(=O)[C@H](Cc2ccc(O)cc2)NC(=O)[C@H](Cc2c[nH]c3ncccc23)NC(=O)[C@H](c2ccccc2)NC(=O)[C@H](C)N(C)C(=O)[C@H](Cc2c[nH]cn2)NC(=O)[C@H](CCCCN)NC(=O)[C@H](C(C)(C)C)NC(=O)[C@H](Cc2ccc(O)cc2)NC1=O (relative stereo) [Compound R4106, UBX-AHPA-NVA-CYS*-TYR-TBG-LYS-HIS-NMA-PHG-7AW-TYR-MFF-SAR-CYS*-NH2], which IC50 (listed as Compound R4106) is on record?
**A.** < 10 nM

**Q.** CCC[C@H](NC(C)=O)C(=O)N[C@H]1CSCc2cccc(c2)CSC[C@@H](C(N)=O)NC(=O)[C@H](Cc2c[nH]cn2)NC(=O)[C@H](CCC)NC(=O)[C@H](Cc2c[nH]c3ncccc23)NC(=O)[C@H](CCC(=O)O)NC(=O)[C@H](Cc2c[nH]c3ncccc23)NC(=O)[C@H](Cc2c[nH]c3ncccc23)NC(=O)[C@H]([C@@H](C)O)NC(=O)[C@H](Cc2c[nH]cn2)NC(=O)[C@H](Cc2ccc(O)cc2)NC(=O)[C@H](C(C)(C)C)NC1=O (relative stereo) [Compound R4100, ACE-NVA-CYS*-TBG-TYR-HIS-THR-7AW-7AW-GLU-7AW-NVA-HIS-CYS*-NH2] was tested. Which IC50 (listed as Compound R4100) did it give?
**A.** < 10 nM

**Q.** CCC[C@H](NC(C)=O)C(=O)N[C@H]1CSCc2cccc(c2)CSC[C@@H](C(=O)O)NC(=O)CN(C)C(=O)[C@H](Cc2ccc(F)cc2)N(C)C(=O)[C@H](Cc2ccc(O)cc2)NC(=O)[C@H](Cc2c[nH]c3ncccc23)NC(=O)[C@H](c2ccccc2)NC(=O)[C@H](C)N(C)C(=O)[C@H](Cc2c[nH]cn2)NC(=O)[C@H](CCCCN)NC(=O)[C@H](C(C)(C)C)NC(=O)[C@H](Cc2ccc(O)cc2)NC1=O (relative stereo) [Compound R4108, ACE-NVA-CYS*-TYR-TBG-LYS-HIS-NMA-PHG-7AW-TYR-MFF-SAR-CYS*] was tested. Which IC50 (listed as Compound R4108) did it give?
**A.** < 10 nM

**Q.** Which IC50 (listed as Compound R4102) does the source give for CCC[C@H](NC(C)=O)C(=O)N[C@H]1CSCc2cccc(c2)CSC[C@@H](C(=O)N[C@H](CO)C(=O)N[C@H](C)C(=O)NCC(=O)N[C@@H](CS)C(=O)N[C@H](C(=O)N[C@H](C(=O)N[C@@H](CCSC)C(=O)O)[C@@H](C)CC)C(C)C)NC(=O)CN(C)C(=O)[C@H](Cc2ccc(F)cc2)N(C)C(=O)[C@H](Cc2ccc(O)cc2)NC(=O)[C@H](Cc2c[nH]c3ncccc23)NC(=O)[C@H](c2ccccc2)NC(=O)[C@H](C)N(C)C(=O)[C@H](Cc2c[nH]cn2)NC(=O)[C@H](CCCCN)NC(=O)[C@H](C(C)(C)C)NC(=O)[C@H](Cc2ccc(O)cc2)NC1=O (relative stereo) [Compound R4102, ACE-NVA-CYS*-TYR-TBG-LYS-HIS-NMA-PHG-7AW-TYR-MFF-SAR-CYS*-DSER-DALA-GLY-CYS-VAL-ILE-MET] here?
**A.** < 10 nM

Reference: patent US10954287B2, “Ras binding peptides and methods of use” (Ra Pharmaceuticals, Inc., priority 2016, dated 2021)
